Test results published in patent publication US20240082409A1 (priority 2020, published 2024).

Assay: peptide synthesis
Conditions: conjugation step, RP-HPLC

## Glp-His-DPal-Ser-Tyr-DLys[dPEG3-Val-Cit-PABC-MMAE]-Leu-Arg-Pro-DAla-amide
  final HPLC purity: 97.9%
